Assay results taken from patent US20100120092A1.
No constants are given. Whether binding was seen depends on the method and setting. Some entries that bind do so weakly or less than the wild type.

Amino acid sequences for entries named in this document (tags omitted). A change or cut given only in a name is not applied to a line headed by its entry.
UniProt P27958: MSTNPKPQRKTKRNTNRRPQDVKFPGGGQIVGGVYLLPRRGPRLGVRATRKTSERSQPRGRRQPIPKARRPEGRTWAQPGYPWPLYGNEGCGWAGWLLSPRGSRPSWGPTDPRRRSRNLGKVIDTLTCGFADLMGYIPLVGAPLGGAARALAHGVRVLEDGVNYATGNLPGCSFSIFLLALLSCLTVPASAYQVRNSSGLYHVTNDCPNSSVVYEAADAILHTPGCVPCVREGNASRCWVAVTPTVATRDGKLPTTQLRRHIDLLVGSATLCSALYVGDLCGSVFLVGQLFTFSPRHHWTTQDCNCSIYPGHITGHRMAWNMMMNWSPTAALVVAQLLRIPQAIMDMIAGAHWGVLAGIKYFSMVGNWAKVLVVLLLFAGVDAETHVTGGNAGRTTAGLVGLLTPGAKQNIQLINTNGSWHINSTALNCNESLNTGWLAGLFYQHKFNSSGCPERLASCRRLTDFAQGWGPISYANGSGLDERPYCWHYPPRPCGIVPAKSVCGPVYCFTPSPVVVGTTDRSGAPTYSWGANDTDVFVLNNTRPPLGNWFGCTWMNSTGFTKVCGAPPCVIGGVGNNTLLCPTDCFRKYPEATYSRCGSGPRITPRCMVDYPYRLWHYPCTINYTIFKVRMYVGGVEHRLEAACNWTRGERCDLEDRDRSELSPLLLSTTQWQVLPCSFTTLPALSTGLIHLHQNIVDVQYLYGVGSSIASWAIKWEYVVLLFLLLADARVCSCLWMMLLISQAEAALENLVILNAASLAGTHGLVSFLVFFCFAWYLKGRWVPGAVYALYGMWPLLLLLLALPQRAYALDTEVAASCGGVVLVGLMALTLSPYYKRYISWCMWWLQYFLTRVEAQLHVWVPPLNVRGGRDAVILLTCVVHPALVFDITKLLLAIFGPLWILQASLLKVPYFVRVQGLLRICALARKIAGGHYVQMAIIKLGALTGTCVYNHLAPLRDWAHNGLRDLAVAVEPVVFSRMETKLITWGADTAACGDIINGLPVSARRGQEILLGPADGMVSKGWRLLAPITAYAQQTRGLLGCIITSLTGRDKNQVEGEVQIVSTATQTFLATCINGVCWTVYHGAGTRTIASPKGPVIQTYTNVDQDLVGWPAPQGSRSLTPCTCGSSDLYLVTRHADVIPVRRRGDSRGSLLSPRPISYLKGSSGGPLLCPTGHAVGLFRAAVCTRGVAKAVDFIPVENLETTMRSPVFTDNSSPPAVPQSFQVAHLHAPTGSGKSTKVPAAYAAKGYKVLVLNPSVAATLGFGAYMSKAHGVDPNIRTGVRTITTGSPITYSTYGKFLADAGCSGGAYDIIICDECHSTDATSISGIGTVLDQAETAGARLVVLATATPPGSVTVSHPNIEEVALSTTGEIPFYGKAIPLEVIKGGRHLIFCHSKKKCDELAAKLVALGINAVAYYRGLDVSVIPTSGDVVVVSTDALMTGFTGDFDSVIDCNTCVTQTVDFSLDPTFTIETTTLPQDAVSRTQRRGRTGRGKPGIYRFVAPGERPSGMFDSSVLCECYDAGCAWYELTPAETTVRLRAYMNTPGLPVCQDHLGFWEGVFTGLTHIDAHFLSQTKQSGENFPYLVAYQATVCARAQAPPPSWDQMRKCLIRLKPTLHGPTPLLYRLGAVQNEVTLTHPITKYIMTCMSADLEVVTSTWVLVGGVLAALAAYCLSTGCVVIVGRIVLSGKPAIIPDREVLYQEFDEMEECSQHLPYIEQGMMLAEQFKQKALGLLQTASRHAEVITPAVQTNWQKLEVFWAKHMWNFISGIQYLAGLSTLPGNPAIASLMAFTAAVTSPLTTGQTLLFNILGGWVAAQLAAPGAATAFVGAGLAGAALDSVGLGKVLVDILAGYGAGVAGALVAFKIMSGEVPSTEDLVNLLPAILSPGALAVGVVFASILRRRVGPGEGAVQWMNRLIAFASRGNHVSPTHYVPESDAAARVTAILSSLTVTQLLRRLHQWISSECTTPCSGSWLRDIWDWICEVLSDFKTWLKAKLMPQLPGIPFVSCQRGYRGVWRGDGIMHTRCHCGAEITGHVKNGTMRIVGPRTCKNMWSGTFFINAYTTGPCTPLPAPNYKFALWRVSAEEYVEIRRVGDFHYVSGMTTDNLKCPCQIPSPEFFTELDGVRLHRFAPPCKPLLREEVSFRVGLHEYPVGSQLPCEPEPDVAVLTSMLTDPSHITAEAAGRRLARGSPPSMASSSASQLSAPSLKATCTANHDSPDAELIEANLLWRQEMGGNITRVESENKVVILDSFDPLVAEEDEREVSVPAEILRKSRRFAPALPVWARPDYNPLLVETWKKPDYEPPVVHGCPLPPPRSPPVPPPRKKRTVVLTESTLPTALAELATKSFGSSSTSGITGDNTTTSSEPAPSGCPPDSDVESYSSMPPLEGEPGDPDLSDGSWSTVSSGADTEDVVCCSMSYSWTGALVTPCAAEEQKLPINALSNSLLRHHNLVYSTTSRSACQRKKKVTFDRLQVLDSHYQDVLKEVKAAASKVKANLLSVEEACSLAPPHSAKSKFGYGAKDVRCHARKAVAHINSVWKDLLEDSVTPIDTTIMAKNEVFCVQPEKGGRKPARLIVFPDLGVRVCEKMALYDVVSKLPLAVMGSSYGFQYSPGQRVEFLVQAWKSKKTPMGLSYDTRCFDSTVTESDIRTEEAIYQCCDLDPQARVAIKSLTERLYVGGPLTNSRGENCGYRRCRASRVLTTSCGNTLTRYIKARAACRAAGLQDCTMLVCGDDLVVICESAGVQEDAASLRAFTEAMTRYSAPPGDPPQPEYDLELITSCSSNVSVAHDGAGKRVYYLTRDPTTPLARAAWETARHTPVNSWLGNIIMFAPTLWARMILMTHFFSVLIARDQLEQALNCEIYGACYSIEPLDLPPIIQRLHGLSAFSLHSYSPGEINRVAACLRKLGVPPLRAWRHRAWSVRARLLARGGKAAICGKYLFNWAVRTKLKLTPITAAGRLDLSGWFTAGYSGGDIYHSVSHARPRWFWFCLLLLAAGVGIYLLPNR

Biological target: HCV E2-DHBV S fusion protein (hepatitis C virus strain H77 (genotype 1a); duck hepatitis B virus (DHBV))
Assay: co-sedimentation in sucrose gradient, Western blot

## HCV E1 protein cleaved from the E1E2-DS polyprotein (from UniProt P27958 193-383)
  binding: binds
